Three sequences from patent US20220364094 can be followed below.

Series [1] has as its system CD44E/s (CD44 splice variants CD44E and CD44s). The series is described as follows: binding assay. The conditions noted are these: confocal imaging; membrane, cytoplasm and nucleus; minimal in vector control, none in Hep3B and Huh7; protein on the cell surface; protein details: stable overexpression in HKCI-C1 cells; label: Cy3; single-stranded DNA; variant of CD44-Apt1 (biotin).

In series [2] the test system is CD44E. Kind of series: binding assay. The conditions noted are these: PS (phosphodiester bonds replaced by phosphorothioate); in vivo xenograft homing in nude mice, 250 pmol iv; significant accumulation at 24 and 72 h versus parental Hep3B; protein on the cell surface; protein details: overexpressed in Hep3B xenograft; label: Cy3; single-stranded DNA; variant of CD44-Apt1 (biotin).

The subject of series [3] is CD44s. The series is described as follows: binding assay. The following applies: PS (phosphodiester bonds replaced by phosphorothioate); in vivo xenograft homing in nude mice, 250 pmol iv; 3-fold higher than control at 24 h (not significant), significant at 72 h; protein on the cell surface; protein details: overexpressed in Hep3B xenograft; label: Cy3; single-stranded DNA; variant of CD44-Apt1 (biotin).

The test system of series [4] is CD44E/s (CD44 splice variants CD44E and CD44s). The series is described as follows: flow cytometry. The conditions noted are these: signal shift versus library; no shift on CD44-low MIHA, Hep3B, Huh7 cells; protein on the cell surface; protein details: stable overexpression in HKCI-C1 cells; label: Cy5; single-stranded DNA; variant of CD44-Apt1 (biotin). Background: In flow cytometry, cells or beads pass a laser one at a time.

Results from cells or extracts need not show a direct contact. For some of these results: The exact form of at least one protein or probe is not confirmed.

“ATCCAGAGTGACGCAGCATCGCAACGATTAGTATGCACCCACCGTATAGGTTGGTCTCTGGACACGGTGGCTTAGT [CD44-Apt1 (Cy3)]”: the binding result in series [1] is given as “binds”.
As for “ATCCAGAGTGACGCAGCATCGCAACGATTAGTATGCACCCACCGTATAGGTTGGTCTCTGGACACGGTGGCTTAGT [CD44-Apt1 phosphorothioate (Cy3)]”, the binding result in series [2] and in series [3] was “binds” in each case.
Regarding “ATCCAGAGTGACGCAGCATCGCAACGATTAGTATGCACCCACCGTATAGGTTGGTCTCTGGACACGGTGGCTTAGT [CD44-Apt1 (Cy5)]”, the binding result in series [4] is “binds”.
